No constants are given. Whether binding was seen depends on the method and setting. For some of these results: In cells and extracts the contact can be indirect. Some results given as binding are weak or reduced against the parent protein; the word gives no strength. Sequences can lack the tags named with a protein. Each block holds one binder with its values, some of them ahead of it.
How the values were obtained:
[1] = target: human PKC-δ (protein kinase C delta), wild type, expressed in HEK293A cells (human) (UniProt Q05655); experiment: GST pull-down from lysate of cells overexpressing PKC-δ, blot with anti-PKC-δ
[2] = target: human PKC-δ (protein kinase C delta), wild type, expressed in HEK293A cells (human) (UniProt Q05655); experiment: GST pull-down from lysate of 293A cells overexpressing PKC-δ, blot with anti-PKC-δ
[3] = target: human PKC-δ (protein kinase C delta), wild type, expressed in HEK293A cells (human) (UniProt Q05655); experiment: anti-HA co-immunoprecipitation, western blot (FIG. 2B)
[4] = target: human PKC-δ (protein kinase C delta), wild type, expressed in HEK293A cells (human) (UniProt Q05655); experiment: anti-HA co-immunoprecipitation, western blot (FIG. 8A; also FIG. 8E with sc-RNA)
[5] = target: human PKC-δ (protein kinase C delta), wild type, expressed in HEK293A cells (human) (UniProt Q05655); experiment: anti-HA co-immunoprecipitation from cells co-expressing HA-hBVR and PKC-δ, western blot
[6] = target: human PKC-δ (protein kinase C delta), wild type, expressed in HEK293A cells (human) (UniProt Q05655); experiment: anti-HA co-immunoprecipitation from HEK-293A cells expressing PKC-δ and HA-hBVR, PMA treated
[7] = target: human PKC-δ (protein kinase C delta), wild type, expressed in HEK293A cells (human) (UniProt Q05655); experiment: anti-HA co-immunoprecipitation from cells loaded with myristoylated peptides, blot with anti-PKC-δ (FIG. 9B)
[8] = target: human PKC-δ (protein kinase C delta), wild type, expressed in HEK293A cells (human) (UniProt Q05655); experiment: anti-HA co-immunoprecipitation from cells expressing PKC-δ and HA-hBVR, PMA or IGF-1 treated, blot with anti-PKC-δ
[9] = target: human PKC-δ (protein kinase C delta), wild type, expressed in HEK293A cells (human) (UniProt Q05655); experiment: anti-PKC-δ immunoprecipitation of endogenous proteins, western blot
[10] = target: human PKC-δ (protein kinase C delta), wild type, expressed in HEK293A cells (human) (UniProt Q05655); experiment: anti-PKC-δ immunoprecipitation of endogenous proteins, blot with anti-hBVR (FIG. 8C)

Protein sequences, listed by entry. Tags and fused reporters are not part of them. Lines headed by an entry give the natural chain unless they say otherwise; changes in a name come on top.
UniProt Q05655: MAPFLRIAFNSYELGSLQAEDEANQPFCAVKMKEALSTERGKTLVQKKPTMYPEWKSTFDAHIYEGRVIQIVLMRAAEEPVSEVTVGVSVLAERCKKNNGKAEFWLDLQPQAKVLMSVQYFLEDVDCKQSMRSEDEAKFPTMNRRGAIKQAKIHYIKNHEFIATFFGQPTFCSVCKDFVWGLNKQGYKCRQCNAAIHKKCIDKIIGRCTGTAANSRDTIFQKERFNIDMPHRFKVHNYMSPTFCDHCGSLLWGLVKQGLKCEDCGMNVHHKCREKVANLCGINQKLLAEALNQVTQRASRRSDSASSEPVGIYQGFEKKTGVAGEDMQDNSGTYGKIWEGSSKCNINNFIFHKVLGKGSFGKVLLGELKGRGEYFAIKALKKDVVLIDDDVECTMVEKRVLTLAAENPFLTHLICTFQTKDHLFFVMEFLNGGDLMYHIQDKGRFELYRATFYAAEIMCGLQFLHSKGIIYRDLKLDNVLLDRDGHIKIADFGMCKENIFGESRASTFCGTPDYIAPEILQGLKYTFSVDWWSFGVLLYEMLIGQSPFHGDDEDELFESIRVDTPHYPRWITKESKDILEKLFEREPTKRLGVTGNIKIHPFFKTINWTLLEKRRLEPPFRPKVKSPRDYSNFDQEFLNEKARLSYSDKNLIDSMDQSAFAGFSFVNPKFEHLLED

binding [1]: binds
binding [2]: binds
B1: GST-hBVR fusion protein (enzyme, not shown: a dimerising Fc or GST)
chain: MNAEPERKFGVVVVGVGRAGSVRMRDLRNPHPSSAFLNLIGFVSRRELGSIDGVQQISLEDALSSQEVEVAYICSESSSHEDYIRQFLNAGKHVLVEYPMTLSLAAAQELWELAEQKGKVLHEEHVELLMEEFAFLKKEVVGKDLLKGSLLFTSDPLEEDRFGFPAFSGISRLTWLVSLFGELSLVSATLEERKEDQYMKMTVCLETEKKSPLSWIEEKGPGLKRNRYLSFHFKSGSLENVPNVGVNKNIFLKDQNIFVQKLLGQFSEKELAAEKKRILHCLGLAEEIQKYCCSRK

binding [3]: binds
binding [4]: binds
binding [5]: binds
binding [6]: binds
binding [7]: binds
binding [8]: binds
B2: HA-tagged hBVR (enzyme, not shown: small tags and cut ends)
chain: MNAEPERKFGVVVVGVGRAGSVRMRDLRNPHPSSAFLNLIGFVSRRELGSIDGVQQISLEDALSSQEVEVAYICSESSSHEDYIRQFLNAGKHVLVEYPMTLSLAAAQELWELAEQKGKVLHEEHVELLMEEFAFLKKEVVGKDLLKGSLLFTSDPLEEDRFGFPAFSGISRLTWLVSLFGELSLVSATLEERKEDQYMKMTVCLETEKKSPLSWIEEKGPGLKRNRYLSFHFKSGSLENVPNVGVNKNIFLKDQNIFVQKLLGQFSEKELAAEKKRILHCLGLAEEIQKYCCSRK

binding [9]: binds
binding [10]: binds
B3: human biliverdin reductase (hBVR), untagged wild type (enzyme)
chain: AEPERKFGVVVVGVGRAGSVRMRDLRNPHPSSAFLNLIGFVSRRELGSIDGVQQISLEDALSSQEVEVAYICSESSSHEDYIRQFLNAGKHVLVEYPMTLSLAAAQELWELAEQKGKVLHEEHVELLMEEFAFLKKEVVGKDLLKGSLLFTSDPLEEDRFGFPAFSGISRLTWLVSLFGELSLVSATLEERKEDQYMKMTVCLETEKKSPLSWIEEKGPGLKRNRYLSFHFKSGSLENVPNVGVNKNIFLKDQNIFVQKLLGQFSEKELAAEKKRILHCLGLAEEIQKYCCSRK

Source: US20110217279A1
